Data as given in article PMC10015162.
These are yes or no findings as the source states them, for the method shown. In cells and extracts the contact can be indirect. Here binding means that the protein was enriched with, or labelled near, the bait; the list need not be complete. A no says only that the protein was not detected with the bait.

The chains behind the UniProt entries cited, without tags or fusion partners.
UniProt Q39011: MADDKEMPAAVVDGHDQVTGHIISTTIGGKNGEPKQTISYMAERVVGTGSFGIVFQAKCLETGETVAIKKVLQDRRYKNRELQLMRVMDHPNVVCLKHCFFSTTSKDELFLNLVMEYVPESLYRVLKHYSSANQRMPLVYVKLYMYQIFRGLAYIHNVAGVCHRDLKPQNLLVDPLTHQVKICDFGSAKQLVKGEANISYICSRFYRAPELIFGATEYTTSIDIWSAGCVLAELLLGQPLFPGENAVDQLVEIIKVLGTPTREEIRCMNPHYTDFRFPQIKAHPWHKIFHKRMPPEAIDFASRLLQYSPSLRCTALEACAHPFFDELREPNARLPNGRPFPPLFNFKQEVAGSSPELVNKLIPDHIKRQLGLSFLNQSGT

Target: BIN2-YFP-TbID (full-length BIN2 fused with YFP and TurboID), in transgenic Arabidopsis (Arabidopsis thaliana) (UniProt Q39011)
Assay: proximity labelling; TbPL-MS: transgenic Arabidopsis seedlings with BIN2-YFP-TbID against YFP-YFP-TbID control, 14N/15N labelling, 50 µM biotin for 3 h, desalting, streptavidin beads, on-bead digestion, LC-MS/MS; BIN2-proximal: ratio >=3 in at least three of four replicates

Binder | binding
BSL2 (protein, UniProt Q9SJF0 1-1018) MDEDSSMVADNDQDREFQSLDGGQSPSPMERETPQQMNDQSPPPEGGSVPTPPPSDPNPATSQQQAAAVVGQEQQPALVVGPRCAPTYSVVDAMMDKKEDGPGPRCGHTLTAVPAVGDEGTPGYIGPRLVLFGGATALEGNSGGTGTPTSAGSAGIRLAGATADVHCYDVLSNKWTRLTPFGEPPTPRAAHVATAVGTMVVIQGGIGPAGLSAEDLHVLDLTQQRPRWHRVVVQGPGPGPRYGHVMALVGQRYLMAIGGNDGKRPLADVWALDTAAKPYEWRKLEPEGEGPPPCMYATASARSDGLLLLCGGRDANSVPLASAYGLAKHRDGRWEWAIAPGVSPSSRYQHAAVFVNARLHVSGGALGGGRMVEDSSSVAVLDTAAGVWCDTKSVVTSPRTGRYSADAAGGDASVELTRRCRHAAAAVGDLIFIYGGLRGGVLLDDLLVAEDLAAAETTYAASHAAAAAATNSPPGRLPGRYGFSDERNRELSESAADGAVVLGSPVAPPVNGDMHTDISPENALLPGTRRTNKGVEYLVEASAAEAEAISATLAAAKARQVNGEVELPDRDCGAEATPSGKPTFSLIKPDSMGSMSVTPAGIRLHHRAVVVAAETGGALGGMVRQLSIDQFENEGRRVSYGTPESATAARKLLDRQMSINSVPKKVIAHLLKPRGWKPPVRRQFFLDCNEIADLCDSAERIFASEPTVLQLKAPIKIFGDLHGQFGDLMRLFDEYGSPSTAGDISYIDYLFLGDYVDRGQHSLETISLLLALKVEYQHNVHLIRGNHEAADINALFGFRIECIERMGERDGIWVWHRINRLFNWLPLAASIEKKIICMHGGIGRSINHVEQIENIQRPITMEAGSIVLMDLLWSDPTENDSVEGLRPNARGPGLVTFGPDRVMEFCNNNDLQLIVRAHECVMDGFERFAQGHLITLFSATNYCGTANNAGAILVLGRDLVVVPKLIHPLPPALSSPETSPERHIEDTWMQELNANRPATPTRGRPQNSNDRGGSLAWM | binds
BSL3 (protein, UniProt Q9SHS7 1-1006) MDLDSSMVPENDQDPIATSENQSPMEEKEEASEQQTGSESESASLTPSLPPPSQQQQQQQQQPQVTAVVGPRCAPTYSVVNAIIEKKEDGPGPRCGHTLTAVPAVGEEGTSSYIGPRLILFGGATALEGNSGGTGTPTSAGSAGIRLAGATADVHCYDVLSNKWSRLTPYGEPPSPRAAHVATAVGTMVVIQGGIGPAGLSAEDLHVLDLTQQRPRWHRVVVQGPGPGPRYGHVMALVGQRYLMAIGGNDGKRPLADVWALDTAAKPYEWRKLEPEGEGPPPCMYATASARSDGLLLLCGGRDANSVPLASAYGLAKHRDGRWEWAIAPGVSPSARYQHAAVFVNARLHVSGGALGGGRMVEDSSSVAVLDTAAGVWCDTKSVVTSPRTGRYSADAAGGDASVELTRRCRHAAAAVGDLIFIYGGLRGGVLLDDLLVAEDLAAAETTSAASHAAAAAAATNTPPGRSPGRYGFSDERTGELPESAPDAVVLGSPVAPPVNGDMYTDISTENAMVPGIRRTSKGVEYLVEASAAEAEAISATLAAAKARQVNGEVELPDRDRGAEATPSGKPSLSLIKPDSAVPNSVIPAGVRLHHRAVVVAAETGGALGGMVRQLSIDQFENEGRRVSYGTPESATAARKLLDRQMSINSVPKKVVAHLLKPRGWKPPVRRQFFLDCNEIADLCDSAERIFSSEPTVLQLKAPIKIFGDLHGQFGDLMRLFDEYGSPSTAGDISYIDYLFLGDYVDRGQHSLETITLLLALKVEYQHNVHLIRGNHEAADINALFGFRIECIERMGERDGIWVWHRINRLFNWLPLAALIEKKIICMHGGIGRSINHVEQIENIQRPITMEAGSIVLMDLLWSDPTENDSVEGLRPNARGPGLVTFGPDRVMEFCNNNDLQLIVRAHECVMDGFERFAQGHLITLFSATNYCGTANNAGAILVLGRDLVVVPKLIHPLPPAITSPETSPERHIEDTWMQELNVNRPPTPTRGRPQNPNDRGSLAWI | binds
BRI1 SUPPRESSOR 1 (BSU1)-LIKE 1 (protein, UniProt Q8L7U5 1-881) MGSKPWLHPAPQYKTLETFWDDEDDAPGPRCAHTLTAVAATKTHGPRLILFGGATAIEGGSSSVPGIRLAGVTNTVHSYDILTRKWTRLKPAGEPPSPRAAHAAAAVGTMVVFQGGIGPAGHSTDDLYVLDMTNDKFKWHRVVVQGDGPGPRYGHVMDLVSQRYLVTVTGNDGKRALSDAWALDTAQKPYVWQRLNPDGDRPSARMYASGSARSDGMFLLCGGRDTLGAPLGDAYGLLMHRNGQWEWTLAPGVAPSPRYQHAAVFVGARLHVSGGVLRGGRVIDAEASVAVLDTAAGVWLDRNGQVTSARGSKGQIDQDPSFELMRRCRHGAASVGIRIYVHGGLRGDVLLDDFLVAENSTFQSDISSPLLASDRTQQSSTPRFSYAARPPSGSEPSFSMSEGLSLDENSLEKLTEASAAEAEVASSVWRAAQLGAGTLDEEPSTSDASSPIVESTTDGTANEGDVRLHPRAVVVAKETVGSLGGMVRQLSLDQFQNESRRMVPMNNSDVPQPTKKFTRQKSPQGLHKKVIAALLRPRNWKPPGNRKFFLDSYEVGELCYAAEQIFMHEQTVLQLKAPIKVFGDLHGQFGDLMRLFDEYGFPSTAGDITYIDYLFLGDYVDRGQHSLETITLLLALKIEYPENVHLIRGNHEAADINALFGFRLECIERMGENDGIWAWTRFNQLFNYLPLAALIENKIICMHGGIGRSISTVEQIEKIERPITMDAGSLVLMDLLWSDPTENDSIEGLRPNARGPGLVTFGPDRVTEFCKRNKLQLIIRAHECVMDGFERFAQGQLITLFSATNYCGTANNAGAILVVGRGLVIVPKLIHPLPPPILSPENSPEHSGDDAWMQELNIQRPPTPTRGRPQPDFDRSSLAYI | binds

Results, then the binder that gave them:

binding | Binder
binds | CHLOROPLAST UNUSUAL POSITIONING 1 (protein, UniProt Q9LI74 1-1004) MFVRIGFVVAASIAAVTVKRLNVKPSKPSKPSDNGEGGDKEQSVDPDYNLNDKNLQEEEEEEEEEVKLINSVINQTRGSFSDYLDDDILPEFEDLLSGEIEYPLPDDDNNLEKAEKERKYEVEMAYNDGELERLKQLVKELEEREVKLEGELLEYYGLKEQESDIVELQRQLKIKTVEIDMLNITINSLQAERKKLQEELSQNGIVRKELEVARNKIKELQRQIQLDANQTKGQLLLLKQHVSSLQMKEEEAMNKDTEVERKLKAVQDLEVQVMELKRKNRELQHEKRELSIKLDSAEARIATLSNMTESDKVAKVREEVNNLKHNNEDLLKQVEGLQMNRFSEVEELVYLRWVNACLRYELRNYQTPAGKISARDLSKNLSPKSQAKAKRLMLEYAGSERGQGDTDLESNYSQPSSPGSDDFDNASMDSSTSRFSSFSKKPGLIQKLKKWGKSKDDSSVQSSPSRSFYGGSPGRLSSSMNKQRGPLESLMIRNAGESVAITTFGQVDQESPGTPETPNLPRIRTQQQASSPGEGLNSVAASFHVMSKSVDNVLDEKYPAYKDRHKLAVEREKHIKHKADQARAERFGGNVALPPKLAQLKEKRVVVPSVITATGDQSNESNESNEGKASENAATVTKMKLVDIEKRPPRVPRPPPRSAGGGKSTNLPSARPPLPGGGPPPPPPPPGGGPPPPPGGGPPPPPPPPGALGRGAGGGNKVHRAPELVEFYQSLMKRESKKEGAPSLISSGTGNSSAARNNMIGEIENRSTFLLAVKADVETQGDFVQSLATEVRASSFTDIEDLLAFVSWLDEELSFLVDERAVLKHFDWPEGKADALREAAFEYQDLMKLEKQVTSFVDDPNLSCEPALKKMYKLLEKVEQSVYALLRTRDMAISRYKEFGIPVDWLSDTGVVGKIKLSSVQLAKKYMKRVAYELDSVSGSDKDPNREFLLLQGVRFAFRVHQFAGGFDAESMKAFEELRSRAKTESGDNNNNNNNNSNEEESVN
binds | translation initiation factor eIF4B2 (protein, UniProt Q9SAD7 1-549) MSKPWGGIGAWADEAERADEEQAAEATATAADSQSFPSLKEAATAKSSKKKKKMTLSEFTKGAYTAPSSAGLTREQMLQLPTGPRQRSEDEMQPGRLGGGFSSYGGGRSSGPPGRMSRDREDSDGSWGGGGGGRRSYGGFDDDQRGSNSRVSDFPQVSRADEDDDWGKGKKSLPSFDQGRQGSRYGGGGGSFGGGGGGGAGSYGGGGAGAGSGGGGGFSKADEVDNWAAGKAKSSTFGSGFRESGPEPDRWARGVLPSGGGVQEERRRLVFEPRKADTEVSETPTAVKTSKPSPFGAARPREQVLAEKGLDWKKLDSDIEAKKGQTSRPSSAQSSRPSSAQSNRSESSALNNVENVVKPRPKVNPFGDAKPREVLLEEQGKDWRKIDSELEHRRVDRPETEGERMLKEEIEELRKKLEKEAAIAPESKESQQESDSNHQNLPDLIREKEKNLDLLIRELDDKVRFRPRAVERPGSSASRGGSYSERPHSRAGSIDESRSVESMERPRSHGTGDNWPRPVDDRRNFQGSKERGFFNNRNFDRSSSAREGW
no binding | MCCA (protein, UniProt Q42523 26-734) SGSASMKPKEQCIEKILVANRGEIACRIMRTAKRLGIQTVAVYSDADRDSLHVKSADEAVRIGPPSARLSYLSGVTIMEAAARTGAQAIHPGYGFLSESSDFAQLCEDSGLTFIGPPASAIRDMGDKSASKRIMGAAGVPLVPGYHGHEQDIDHMKSEAEKIGYPIIIKPTHGGGGKGMRIVQSGKDFADSFLGAQREAAASFGVNTILLEKYITRPRHIEVQIFGDKHGNVLHLYERDCSVQRRHQKIIEEAPAPNISEKFRANLGQAAVSAARAVGYYNAGTVEFIVDTESDQFYFMEMNTRLQVEHPVTEMIVGQDLVEWQIRVANGEPLPLSQSEVPMSGHAFEARIYAENVPKGFLPATGVLNHYRPVAVSPSVRVETGVEQGDTVSMHYDPMIAKLVVWGGNRGEALVKLKDCLSNFQVAGVPTNINFLQKLASHKEFAVGNVETHFIEHHKSDLFADESNPAATEVAYKAVKHSAALVAACISTIEHSTWNESNHGKVPSIWYSNPPFRVHHEAKQTIELEWNNECEGTGSNLISLGVRYQPDGSYLIEEGNDSPSLELRVTRAGKCDFRVEAAGLSMNVSLAAYLKDGYKHIHIWHGSEHHQFKQKVGIEFSEDEEGVQHRTSSETSSHPPGTIVAPMAGLVVKVLVENEAKVDQGQPILVLEAMKMEHVVKAPSSGSIQDLKVKAGQQVSDGSALFRIKG
